Data from US20080109040A1, “METHOD OF TREATING ARRHYTHMIAS” (priority 2002, published 2008).

Test system: guinea pig ventricular myocytes
Test: Action potential duration, EADs and triggered activity in guinea pig ventricular myocytes
Details: with and without ATX-II

Cc1cccc(CCN2CCC(C(=O)c3ccc(NS(C)(=O)=O)cc3)CC2)n1 [E-4031, reference compound]
Induction of EADs: induced EADs in the presence, but not in the absence, of ATX-II
